Measured values: PubChem BioAssay AID493014 (National Center for Advancing Translational Sciences (NCATS), 2011)
The other results are listed elsewhere or left out. These are further read-outs of the screen, such as a control signal, another cell line or another target. No call is given for them. The list favours compounds with an active or inconclusive main result. Words in brackets tell the shape of the fitted curve; partial curves, single points and poor fits give uncertain potencies.

Test: qHTS Assay to Find Inhibitors of Chronic Active B-Cell Receptor Signaling
Details: ABC-DLBCL IkBa-CBG/CBR reporter, luminescence ratio (green luciferase fused to IkBa over red control in TMD8 lymphoma cells), 4 h
Procedure, shortened: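 Concentration-response series (up to 46 uM) were applied to TMD8 dual-reporter cells for 4 h at 37C with doxycycline. Green/red ratio, after filter-overlap correction, defined %Activity; red signal alone was normalised to basal cells and zero luminescence.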

[1] = measured here: CBR red luminescence, cell number
[2] = measured here: IkBa-CBG green luminescence

Compound	AC50 [1]	AC50 [2]
COC(=O)c1ccc(NC(=O)C2CCCN2S(=O)(=O)c2ccc(OC)cc2)cc1 (stereo not given)	6.51 µM [rising, full curve, poor fit]	
Cc1cccc2cc(CN(CCN3CCOCC3)C(=O)NCc3ccccc3)c(=O)[nH]c12	5.8 µM [falling, partial curve, poor fit]	
CCc1ccc(S(=O)(=O)/N=C2\C=C(Nc3ccc(C(=O)O)cc3)C(=O)c3ccccc32)cc1	2.24 µM [falling, full curve, poor fit]	8.91 µM [rising, partial curve, poor fit]
COc1ccnc2c1c(=O)n(Cc1ccc(F)cc1)c(=O)n2C	11.2 µM [falling, partial curve, poor fit]	
COc1ccc(S(=O)(=O)N(CC(=O)NCc2cccnc2)Cc2ccccc2)cc1	1.78 µM [rising, partial curve, poor fit]	
Cc1sc(-n2c(C)cc(/C=C3\SC(=S)NC3=O)c2C)c(C#N)c1C	20 µM [rising, partial curve, poor fit]	
COc1ccc(-c2cc3nc(CCl)[nH]c(=O)c3s2)cc1	10 µM [falling, partial curve]	
COc1cccc(-n2c(SCC(=O)OC(C)C)nnc2-c2cccnc2)c1	0.326 µM [falling, full curve]	0.326 µM [rising, full curve, poor fit]
Cc1ccc(-n2cc(CNC(C)Cn3cncn3)c(-c3ccc(F)cc3)n2)cc1 (stereo not given)	8.91 µM [falling, partial curve]	
CNC(C)C(=O)NC(C(=O)N1CCCC1C(=O)NNc1ccccc1)C(C)C (stereo not given)	11.6 µM [rising, partial curve, poor fit]	
O=C(O)c1cccc(N/N=C/c2cccnc2)c1	3.98 µM [falling, partial curve]	
Cc1[nH]c2ccccc2c1C(=O)COC(=O)c1nccnc1N	23.1 µM [falling, partial curve, poor fit]	
Cc1ccc(S(=O)(=O)CCC(=O)N2CCN(c3ccc([N+](=O)[O-])cc3)CC2)cc1	5.62 µM [falling, partial curve, poor fit]	
COc1cc(C2C(C#N)=C(N)Oc3c2c(-c2ccccc2)nn3-c2ccccc2)cc(OC)c1OC (stereo not given)	29.1 µM [falling, single point]	25.9 µM [rising, single point]
CN1CCC/C1=C1/C(=O)N(c2ccccc2)N=C1NC(=O)Nc1cccc(Cl)c1	1.78 µM [falling, full curve]	
Cc1ccc(-c2nc3ccccc3c(=O)n2-c2c(C)n(C)n(-c3ccccc3)c2=O)cc1	6.31 µM [rising, single point]	
N/C(=N\OC(=O)c1cnn(-c2ccccc2)c1C(F)(F)F)c1cc(C(F)(F)F)cc(C(F)(F)F)c1	11.2 µM [rising, partial curve, poor fit]	
Cc1ccc(/C(C#N)=C\c2cn(C)c3ccccc23)cc1	0.92 µM [rising, full curve]	
O=C(NCc1cccc(F)c1)c1cccc2c1C(=O)c1ccc(N3CCCC3)cc1S2(=O)=O	29.1 µM [rising, partial curve, poor fit]	
CCCCn1c(SCC(=O)N2CCN(c3ccccc3)CC2)nc2ccsc2c1=O	20 µM [falling, single point]	

A few values from the entries so far.
Entry of Cc1ccc(-n2cc(CNC(C)Cn3cncn3)c(-c3ccc(F)cc3)n2)cc1 (stereo not given) under AC50 [1]: 8.91 µM [falling, partial curve]
Entry of CN1CCC/C1=C1/C(=O)N(c2ccccc2)N=C1NC(=O)Nc1cccc(Cl)c1 under AC50 [1]: 1.78 µM [falling, full curve]
Entry of O=C(NCc1cccc(F)c1)c1cccc2c1C(=O)c1ccc(N3CCCC3)cc1S2(=O)=O under AC50 [1]: 29.1 µM [rising, partial curve, poor fit]

The listing continues:

Compound	AC50 [1]	AC50 [2]
O=C1CSC(=S)N1Cc1cccnc1	18.4 µM [falling, partial curve]	
COC(=O)c1[nH]c2c(c1C)C(=O)CC(c1ccccc1)C2 (stereo not given)	5.17 µM [rising, full curve]	2.59 µM [falling, full curve]
Cc1cccc(-c2nn(-c3ccccc3)cc2C(=O)N(C)CC(=O)Nc2ccc(N3CCOCC3)cc2)c1	7.31 µM [rising, partial curve, poor fit]	
O=C(CNC(=O)c1cccs1)NCC(=O)OCc1c(Cl)cccc1Cl	3.98 µM [rising, full curve, poor fit]	
O=C(O)c1ccc(NS(=O)(=O)c2ccc3c(c2)C(=O)c2cc(S(=O)(=O)Nc4ccc(C(=O)O)cc4)ccc2-3)cc1	35.5 µM [falling, single point]	
O=C(NC(Cc1ccccc1)C(=O)O)c1ccco1 (stereo not given)	15.8 µM [rising, single point]	
CCOC(=O)CSc1nc2c(sc3ccccc32)c(=O)n1Cc1ccc(OC)cc1	35.5 µM [falling, single point]	
Cc1ccc(CSCC(=O)Nc2ccccc2)cc1	3.16 µM [rising, partial curve]	
CCOc1cnc(-c2c(-c3c(F)cccc3Cl)noc2C)o1	0.112 µM [rising, full curve, poor fit]	
CCOC(=O)[C@H]1[C@H]2COc3cc(OC)ccc3[C@@H]2N2C(=O)c3cc(OC)ccc3NC(=O)[C@@]12C	16.4 µM [falling, partial curve]	20.6 µM [rising, partial curve, poor fit]
COc1ccc(OCc2cccc(C(=O)N3CCCC3)c2)cc1	29.1 µM [falling, single point]	
COc1ccc(OCCNC(=O)c2ccccc2OCC(=O)Nc2ccc(NC(C)=O)cc2)cc1	29.1 µM [falling, single point]	
Nc1c(C(=O)c2ccccc2)sc(Nc2ccc(Cl)c(Cl)c2)c1C(=O)Nc1ccccc1	12.6 µM [falling, partial curve]	
CC(C)NC(=O)c1c(O)c2ccccc2[nH]c1=O	29.1 µM [falling, single point]	
C=CCNC(=S)/N=c1/scc(C)n1C	13 µM [rising, partial curve, poor fit]	
Cc1c(CN2CCC(CO)(Cc3cccc(C(F)(F)F)c3)CC2)c2ccccc2n1C	35.5 µM [falling, single point]	
O=C(CNS(=O)(=O)c1cccc(Cl)c1)Nc1ccc(-c2nc3ccccc3s2)cc1	5.8 µM [rising, partial curve]	
O=C(Cc1cccs1)Nc1nnc(SCc2ccc(C(F)(F)F)cc2)s1	29.1 µM [rising, partial curve, poor fit]	
CNC(=O)CSc1cn(CC(=O)N(C(C)C)C(C)C)c2ccccc12	14.1 µM [falling, partial curve, poor fit]	
COc1cc(S(=O)(=O)N2CCN(c3ccccc3)CC2)ccc1F	3.16 µM [falling, single point]	

Compound	AC50 [1]	AC50 [2]
O=Nc1ccc(NOC(=O)c2ccccc2Br)cc1	29.1 µM [falling, single point]	
CC(C)(C)c1cc(NC(=O)COC(=O)c2ccc(O)cc2O)n(-c2ccccc2)n1	18.4 µM [falling, single point]	
CCOC(=O)c1ccc(N2C(=O)C(O)=C(C(C)=O)C2c2ccccn2)cc1 (stereo not given)	1.84 µM [rising, partial curve, poor fit]	
Cc1ccc2nc(NC(=O)CN3CCOCC3)sc2c1	4.11 µM [falling, full curve, poor fit]	
O=C(c1cnn(C(=O)c2ccccc2)c1)c1ccccc1O	2.06 µM [falling, full curve, poor fit]	
O=C(Nc1nc(-c2ccccn2)cs1)c1ccc2c(c1)OCCO2	35.5 µM [falling, single point]	
Cc1nc2sc(C(c3cccs3)N3CCN(c4ccccc4)CC3)c(O)n2n1 (stereo not given)	20.6 µM [rising, single point]	
O=C(C1CCN(S(=O)(=O)c2cccs2)CC1)N1CCCC(C(F)(F)F)C1 (stereo not given)	0.0891 µM [falling, full curve, poor fit]	
Cc1cc(=O)n2nc(-c3ccccc3)sc2n1	16.4 µM [falling, partial curve]	
Cc1nnc(C)n1/N=C/c1cccc(Oc2ccccc2)c1	5.17 µM [falling, full curve]	
NC(=O)CC(NC(=O)Cc1cccc2ccccc12)c1ccc(N2CCc3ccccc3C2)c([N+](=O)[O-])c1 (stereo not given)	8.91 µM [falling, partial curve, poor fit]	
CCCc1cc(=O)oc2c3c(cc(OCC(=O)NCC4CCC(C(=O)O)CC4)c12)OC(C)(C)CC3 (stereo not given)	35.5 µM [falling, single point]	
Oc1[nH]c2ccccc2c1N=Nc1nc2ccccc2s1	0.013 µM [falling, full curve, poor fit]	
COc1ccc(CN2CCN(c3ncnc4scc(-c5ccc(F)cc5)c34)CC2)cc1	35.5 µM [falling, single point]	
COc1ccc(C)cc1S(=O)(=O)Nc1cc2c3c(c1)CCC(=O)N3CCC2	14.6 µM [rising, partial curve, poor fit]	
CC(=O)Nc1ccc(S(=O)(=O)N(Cc2cc3ccc(C)cc3[nH]c2=O)CC2CCCO2)cc1 (stereo not given)	3.55 µM [rising, partial curve, poor fit]	
Cc1ccc(-n2nnc3ccccc3c2=O)cc1C	6.51 µM [falling, single point]	
CC(=O)Nc1ccc2nc(NC(=O)COc3cccc(C)c3)sc2c1	7.08 µM [falling, partial curve, poor fit]	
CCSc1ncnc2c1oc1ccccc12	7.08 µM [rising, partial curve, poor fit]	
COc1ccccc1NC(=O)c1cc2ccccc2o1	32.6 µM [falling, single point]	
